Our source for the binding values is article PMC10069784.

Chains of the proteins cited; added tags and fusions are not shown.
UniProt P04107: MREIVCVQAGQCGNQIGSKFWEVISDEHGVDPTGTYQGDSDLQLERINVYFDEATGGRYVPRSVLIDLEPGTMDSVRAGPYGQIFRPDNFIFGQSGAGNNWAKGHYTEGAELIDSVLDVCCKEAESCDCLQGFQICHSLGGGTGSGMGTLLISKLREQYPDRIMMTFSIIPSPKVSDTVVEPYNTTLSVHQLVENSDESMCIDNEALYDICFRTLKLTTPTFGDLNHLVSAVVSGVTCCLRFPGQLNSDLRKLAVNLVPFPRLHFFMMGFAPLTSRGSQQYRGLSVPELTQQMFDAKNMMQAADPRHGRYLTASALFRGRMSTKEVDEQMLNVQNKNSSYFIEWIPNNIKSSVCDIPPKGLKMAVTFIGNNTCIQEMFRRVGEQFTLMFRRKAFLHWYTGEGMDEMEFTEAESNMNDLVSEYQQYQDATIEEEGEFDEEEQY

These are yes or no findings as the source states them, for the method shown. Binding seen in cells or lysates may run through a third protein. Some entries that bind do so weakly or less than the wild type.

The test addresses GST-fused β-tubulin (T. brucei) (UniProt P04107). Briefly: pull-down; GST-β-tubulin on Glutathione Sepharose 4B beads incubated with cleared trypanosome cell lysate containing CRK2-3HA for 1 h at 4°C; lysis/wash buffer 25 mM Tris-HCl pH 7.6, 150 mM NaCl, 1 mM DTT, 1% Nonidet P-40; six washes; anti-HA immunoblot; only the target purified.

B1: CRK2-3HA (enzyme, UniProt P54665 1-345)
chain: MQVQVQEGQTACDGSLRPLPSAGPASFVPRSLRPAPLRGTSTPDRYSRIEKVGEGSYGIVYKCHDNFTGRTVAMKRIPLIVNDGGVPSTAVREVSLLRELNHPYVVRLLDVVLHEAKLLLIFEYMEQDLQGMLKQRNTAFVGGKLRRIMFQLLLGLHECHSRRFVHRDIKPSNILIDRKESVVKLADFGLGRAFRVPLQTYTTEVMTLWYRAPEVLLGDKQYLPAVDVWSMGCVFAELARRRSLFAGDTAINQLFSIFQLLGTPTEATWRGVTSLPHHNVNFPRWTAKPLRTAVPALDDDGVDLLRRMLCYNPRERITAYEALQHSYFDEVREEEVEKLMRFNGA
On to B1, for which the binding entry was “binds”.
